Laboratory results from patent US9790180B2, “Piperidine derivatives as HDAC1/2 inhibitors” (Acetylon Pharmaceuticals, Inc., priority 2014, dated 2017).
≈ marks a conversion by molar mass, not a printed value. The match of structure and compound is tentative.

The chains behind the UniProt entries cited, without tags or fusion partners. Residues count along the entry.
UniProt Q92769, whole entry: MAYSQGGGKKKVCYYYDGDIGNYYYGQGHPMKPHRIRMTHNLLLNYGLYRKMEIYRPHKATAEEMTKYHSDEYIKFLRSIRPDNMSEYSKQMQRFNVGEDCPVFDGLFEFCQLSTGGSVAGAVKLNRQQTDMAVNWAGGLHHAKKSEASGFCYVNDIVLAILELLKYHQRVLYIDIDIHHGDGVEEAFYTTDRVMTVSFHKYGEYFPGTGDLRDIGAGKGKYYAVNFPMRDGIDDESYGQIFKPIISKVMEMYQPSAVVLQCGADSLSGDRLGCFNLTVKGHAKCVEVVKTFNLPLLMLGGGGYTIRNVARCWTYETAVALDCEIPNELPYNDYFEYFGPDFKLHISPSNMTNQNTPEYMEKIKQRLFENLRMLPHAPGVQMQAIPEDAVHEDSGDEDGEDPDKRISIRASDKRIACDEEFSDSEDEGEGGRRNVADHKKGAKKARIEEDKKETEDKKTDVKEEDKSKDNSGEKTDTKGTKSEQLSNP
UniProt O15379, whole entry: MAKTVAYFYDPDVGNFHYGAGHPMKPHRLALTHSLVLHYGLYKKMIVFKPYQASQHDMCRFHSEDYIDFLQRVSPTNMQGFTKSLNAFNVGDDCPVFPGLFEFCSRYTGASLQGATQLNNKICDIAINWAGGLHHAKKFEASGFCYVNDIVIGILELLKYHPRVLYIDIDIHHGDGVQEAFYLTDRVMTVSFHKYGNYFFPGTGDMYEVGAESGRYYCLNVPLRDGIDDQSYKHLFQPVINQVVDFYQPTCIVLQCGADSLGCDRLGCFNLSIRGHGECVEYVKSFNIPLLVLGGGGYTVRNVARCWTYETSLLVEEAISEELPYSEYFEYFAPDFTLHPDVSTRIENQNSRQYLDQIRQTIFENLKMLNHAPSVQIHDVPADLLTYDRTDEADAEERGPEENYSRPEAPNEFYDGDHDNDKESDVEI
UniProt Q12809, whole entry: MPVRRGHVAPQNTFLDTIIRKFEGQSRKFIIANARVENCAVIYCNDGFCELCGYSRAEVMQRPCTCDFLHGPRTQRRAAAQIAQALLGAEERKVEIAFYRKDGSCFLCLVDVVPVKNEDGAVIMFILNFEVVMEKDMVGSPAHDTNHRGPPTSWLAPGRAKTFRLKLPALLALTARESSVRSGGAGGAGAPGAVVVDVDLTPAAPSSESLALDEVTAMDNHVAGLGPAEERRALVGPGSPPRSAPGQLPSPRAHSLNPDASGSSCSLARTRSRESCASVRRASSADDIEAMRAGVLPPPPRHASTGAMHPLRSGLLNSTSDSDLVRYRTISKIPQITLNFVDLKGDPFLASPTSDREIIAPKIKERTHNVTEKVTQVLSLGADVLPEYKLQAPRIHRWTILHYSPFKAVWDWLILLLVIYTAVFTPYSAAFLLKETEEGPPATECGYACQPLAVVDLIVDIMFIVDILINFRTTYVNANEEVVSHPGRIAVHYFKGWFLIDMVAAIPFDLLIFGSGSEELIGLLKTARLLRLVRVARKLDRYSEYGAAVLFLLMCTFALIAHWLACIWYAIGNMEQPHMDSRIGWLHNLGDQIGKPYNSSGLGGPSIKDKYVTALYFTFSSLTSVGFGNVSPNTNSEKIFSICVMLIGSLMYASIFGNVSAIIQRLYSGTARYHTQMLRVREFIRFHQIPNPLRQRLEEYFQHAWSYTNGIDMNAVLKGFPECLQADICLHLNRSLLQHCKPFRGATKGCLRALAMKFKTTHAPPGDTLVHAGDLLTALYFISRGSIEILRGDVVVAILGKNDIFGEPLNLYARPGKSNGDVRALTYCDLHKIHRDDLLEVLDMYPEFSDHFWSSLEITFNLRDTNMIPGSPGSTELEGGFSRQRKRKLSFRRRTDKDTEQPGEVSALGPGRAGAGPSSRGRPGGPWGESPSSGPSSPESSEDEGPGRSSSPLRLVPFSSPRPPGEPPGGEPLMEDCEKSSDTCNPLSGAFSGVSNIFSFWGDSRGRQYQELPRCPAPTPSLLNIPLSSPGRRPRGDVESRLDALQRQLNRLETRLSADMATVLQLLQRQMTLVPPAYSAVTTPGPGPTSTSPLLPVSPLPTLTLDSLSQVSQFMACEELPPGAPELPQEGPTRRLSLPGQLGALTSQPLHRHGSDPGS
UniProt Q13547, whole entry: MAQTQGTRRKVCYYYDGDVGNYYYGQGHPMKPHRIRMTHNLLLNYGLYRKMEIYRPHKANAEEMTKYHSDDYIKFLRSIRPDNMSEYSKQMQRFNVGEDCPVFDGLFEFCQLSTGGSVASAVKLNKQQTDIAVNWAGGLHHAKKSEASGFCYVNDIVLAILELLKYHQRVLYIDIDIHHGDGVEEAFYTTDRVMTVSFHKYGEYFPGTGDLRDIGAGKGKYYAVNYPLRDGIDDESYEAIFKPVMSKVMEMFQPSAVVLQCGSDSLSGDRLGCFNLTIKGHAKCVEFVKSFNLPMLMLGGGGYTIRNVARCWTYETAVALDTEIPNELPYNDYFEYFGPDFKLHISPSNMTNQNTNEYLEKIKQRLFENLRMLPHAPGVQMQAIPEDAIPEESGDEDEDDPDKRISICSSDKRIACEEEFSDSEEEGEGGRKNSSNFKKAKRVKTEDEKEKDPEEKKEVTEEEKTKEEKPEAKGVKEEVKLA
UniProt Q9Y618, 395-489 partner limits assumed: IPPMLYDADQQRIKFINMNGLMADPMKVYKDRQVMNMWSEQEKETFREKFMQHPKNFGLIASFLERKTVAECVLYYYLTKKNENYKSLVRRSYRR

Columns and labels:
HDAC2 = HDAC2 (Homo sapiens (Human), UniProt Q92769); assay: HDAC enzyme assay, HDAC2; details: read-out: IC50 (nM) HDAC2; 24 hours pre-incubation with enzyme
HDAC3 = HDAC3 (Homo sapiens (Human), UniProt O15379); assay: HDAC enzyme assay, HDAC3; details: read-out: IC50 (nM) HDAC3; 24 hours pre-incubation with enzyme
[1] = Rat cassette pharmacokinetics
Description: Male SD rats were fasted overnight. Compounds of the invention were dissolved in dimethyl acetamide at 10 times the final concentration, then Solutol HS 15 (BASF) was added to a final concentration of 10%. Finally 80% saline was added and vortexed to achieve a clear solution. For the IV dosing three animals were injected via the foot dorsal vein with 1 mg/kg compound. For the PO dosing 5 mg/kg of compound was delivered by oral gavage. Blood was collected via the tail vein into K2EDTA tubes at 5 minutes, 15 minutes, 30 minutes, 1 hour, 2 hours, 4 hours, 8 hours and 24 hours after dosing. The blood was centrifuged at 2000 g for 5 minutes at 4° C. to obtain plasma. The plasma was extracted with acetonitrile and the level of compound was analyzed by LC/MS/MS. The level of compound in plasma was calculated from a standard curve in rat plasma. The IV clearance and area under the curve were calculated using WinNonLin software. The dose adjusted area under the curve for the IV and oral dosing were used to calculate the oral bioavailability.

hERG channel = hERG channel (Homo sapiens (Human), UniProt Q12809); assay: hERG assay (QPatch, CHO cell line expressing hERG channels); details: In vitro tox
Description: For hERG assays, a CHO cell line stably transfected with hERG cDNA and expressing hERG channels were seeded into a QPatch plate (Sophion) at a density of 3-8×10^6 cells/ml. The cells were voltage clamped at a holding potential of −80 mV. The hERG current was activated by depolarizing at +20 mV for 5 sec, after which the current was taken back to −50 mV for 5 sec to remove the inactivation and observe the deactivating tail current. The maximum amount of tail current size was used to determine hERG current amplitude. Six doses (30, 10, 3, 1, 0.3 and 0.1 μM) of Compound 003 were chosen to obtain fitting curves and IC50. Data were analyzed using Assay Software provided by Sophion and Graphpad Prism.

[2] = system: CYP1A2, CYP2C9, CYP2C19, CYP3A4, CYP2D6; assay: Cyp inhibition in human liver microsomes; details: In vitro tox
Description: For Cyp inhibition, human live microsomes from BD Gentest were incubated with Compound 003 (10, 3.33, 1.11, 0.37, 0.12, 0.04, 0.01 μM) and substrate (CYP1A2: Phenacetin at 30 μM; CYP2C9: Diclofenac at 10 μM; CYP2C19: S-Mephenytoin at 35 μM; CYP3A4: Midazolam at 5 μM and Testosterone at 80 μM; CYP2D6: Bufuralol at 10 μM) for the following incubation times: CYP1A2, 2C9, 2D6: 10 minutes, 37° C.; CYP2C19: 45 minutes, 37° C.; CYP3A4: 5 minutes, 37° C. Substrate conversion was measured by liquid chromatography/mass spectrometry/mass spectrometry (LC/MS/MS). Inhibition was calculated by curve fitting in Graph Pad Prism.

Solubility = format: physicochemical
HDAC1 = HDAC1 (Homo sapiens (Human), UniProt Q13547); assay: HDAC enzyme assay, HDAC1; details: read-out: IC50 (nM) HDAC1; 24 hours pre-incubation with enzyme
[3] = rat cassette dosing, 5 mg/kg PO

Row | IC50 (HDAC1) | SMILES | IC50 (HDAC2) | IC50 (HDAC3) | PO AUC [1, 3] | PO Cmax [1, 3] | PO T½ [1, 3] | IV Clr. ([1]; rat cassette dosing, IV 1 mg/kg) | F % ([1]; rat, oral AUC to IV AUC, dose adjusted) | hERG (hERG channel) | Cyp [2] | Solubility (Solubility)
1 |  | CC1(Nc2ccc(C(=O)Nc3cc(-c4cccs4)ccc3N)cc2)CCN(C(=O)N2CCOCC2)CC1 | 21 nM | 286 nM | 15941 ng·h/mL | 1497 ng/mL | 7.6 h | 9.5 mL/min/kg | 209% | 12 µM | >10 µM | 12 µM (≈ 6.24 µg/mL)
2 | 0.9 nM | Nc1ccc(-c2cccs2)cc1NC(=O)c1ccc(NC2CCN(C(=O)N3CCOCC3)CC2)cc1 [Compound 020] | 4.2 nM | 43 nM |  |  |  |  |  |  |  | 
